In patent publication US20250060373A1, “NOVEL ASSAY AND NOVEL METHODS OF TREATING HUTCHINSON-GILFORD PROGERIA SYNDROME” (The Progeria Research Foundation, priority 2021, published 2025):

System: plasma progerin
Test: Diurnal variation in plasma progerin using pharmacokinetics (pK) sample sets, trough vs post-dose
Type: in vivo, human

NC(=O)N1CCC(CC(=O)N2CCC([C@H]3c4ncc(Br)cc4CCc4cc(Cl)cc(Br)c43)CC2)CC1 [lonafarnib]
average difference between progerin trough and 2-, 4- and 8-hours post-dose (ProLon1, lonafarnib dose 115 mg/m^2, trough significantly lower, all p<0.05): about 3,000 μg/mL | progerin post-dose vs. trough levels (ProLon1 at 150 mg/m^2, post-dose hours 1, 2, 4, 6, 8, all p>0.05): did not demonstrate significant changes
